{"source": "patent US20220002663A1", "about": "“SELECTIVE SALMONELLA OR E. COLI CULTIVATION METHOD, COMPOSITIONS AND USES” (SOLUS SCIENTIFIC SOLUTIONS LTD, priority 2018, published 2022)", "test_system": "Salmonella", "test": "Inclusivity: culture of pure Salmonella serovars in BPW with selective agent or supplement, ELISA detection (FIG. 4, FIG. 6)", "format": "cell-based", "settings": "8 mg/L BG; culture for 20 hours; low to moderate inoculum levels of pure Salmonella cultures", "source_text": "FIG. 4 illustrates inclusivity study data where multiple Salmonella serovars were artificially inoculated into either Buffered Peptone Water (BPW) on its own, or BPW enriched with either a selective cefsulodin, novobiocin, brilliant green lyophilised supplement run in the absence or presence of an oatmeal food matrix; or a selective cefsulodin, novobiocin, 4PYcq lyophilised supplement run in the absence of an oatmeal food matrix.\nFIG. 6 illustrates inclusivity study data where multiple Salmonella serovars were artificially inoculated into BPW enriched with a selective cefsulodin, novobiocin, 4PYcq lyophilised supplement at low levels.", "note": "At least one structure is not confirmed: it was looked up by name or label, or the drawing left a doubt."}
{"smiles": "CCN(CC)c1ccc(C(=C2C=CC(=[N+](CC)CC)C=C2)c2ccccc2)cc1", "note": "[BG, Brilliant Green, reference compound]", "values": [{"measurement": "recovery of Salmonella for detection using the ELISA method", "value": "insufficient recovery of Salmonella for detection"}]}
